In all, about 320,000 compounds went through this assay and about 22,000 (6.9%) were called active. Inconclusive means that the source gave no clear call. Such entries were picked first, then a sample of the others. Calls follow the shape of the dose curve; as a rule, active = well fitted inhibition curve with a large enough effect; inconclusive = small, poorly fitted or top-dose-only effect, or another doubt; inactive = no such curve, though single readings can be large or run the other way. Potencies of inconclusive entries are doubtful fits and often do not repeat.
assay: Primary qHTS for delayed death inhibitors of the malarial parasite plastid, 96 hour incubation; conditions: P. falciparum luciferase reporter growth; series mostly up to 28.7 µM; activity change, negative = inhibition: at the top concentration
How it was run: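 Readout is luminescence from an integrated firefly luciferase in P. falciparum. Red cells, 2% hematocrit and 0.05% parasitemia final, were cultured with compound through two parasite generations (96 hours) at 37 C, 5% CO2.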
% is scaled to controls: 0 for no effect and ±100 for the full control effect; potency is read from the fitted curve at half-maximal effect.

| Compound | Potency | activity change, negative = inhibition |
| --- | --- | --- |
| CCn1c(N)c(C(=O)Nc2ccccc2C(=O)OC)sc1=S | active: 13.1 µM | – |
| CC(C)CS(=O)(=O)C1=NSC2=NC(=O)/C(=C\c3ccc(OC(=O)c4ccco4)cc3)C(=N)N21 | – | inactive: 26.7% |
| Cc1cc(C(F)(F)F)nc(SCCN2CCCCC2)c1C#N | inconclusive: 18.5 µM [inhibitor, single point] | – |
| CN(c1ccccn1)c1ncnc2[nH]ncc12 | inconclusive: 4.15 µM [inhibitor, single point] | – |
| O=C(NCc1ccc2[nH]c3c(c2c1)CCCC3)N1CCOCC1 | inconclusive: 11.7 µM [inhibitor, partial curve, poor fit] | – |
| COc1ccc(NC(C)=O)cc1NC(=O)c1cccc(S(=O)(=O)N2CCc3ccccc32)c1 | inconclusive: 18.5 µM [inhibitor, single point] | – |
| COc1ccc(-c2noc(CCc3ccccc3)n2)cc1 | – | inactive: -14.4% |
| COC(=O)c1ccccc1NC(=O)CN(C)S(=O)(=O)c1cc(C)ccc1OC | inconclusive: 2.08 µM [inhibitor, full curve] | – |
| Cc1cccc(OCC(=O)NCc2cc(C)nc3ccccc23)c1 | active: 9.28 µM | – |
| COc1ccc(C2NCCc3c2[nH]c2ccccc32)cc1CSc1nc2ccccc2s1 (stereo not given) | inconclusive: 0.208 µM [inhibitor, partial curve, poor fit] | – |
| CCCn1cnc2c(=S)nc(N)[nH]c21 | – | inactive: -21.9% |
| Nn1c(SCc2nc3ccccn3c2Br)nnc1-c1cccnc1 | – | inactive: 187% |
| CCN1CCN(S(=O)(=O)c2ccc(Br)s2)CC1 | inconclusive: 11.7 µM [inhibitor, single point] | – |
| Cc1cccc([C@@H]2[C@@H]3C(=O)N(Cc4ccccc4)C(=O)[C@@H]3[C@]3(Cc4ccc(Cl)cc4)C(=O)N(c4ccc(Br)cc4)C(=O)N23)c1 | active: 8.28 µM | – |
| O=C(CN1C2=NCCCN2c2ccccc21)c1ccc(Br)s1 | inconclusive: 11.7 µM [inhibitor, partial curve, poor fit] | – |
| COc1ccc(CN2CCN(c3ccccc3F)CC2)cc1O | inconclusive: 18.5 µM [inhibitor, single point] | – |
| CCOC(=O)c1c(C)c(C(=O)O)n(C)c1C | inconclusive: 18.5 µM [inhibitor, single point] | – |
| O=C(CCN1CCCCCC1)Nc1ccc(F)cc1 | inconclusive: 13.1 µM [inhibitor, partial curve, poor fit] | – |
| CC(C)c1ccc(NC(=O)C(c2ccccc2)N2CCN(C(=O)c3ccco3)CC2)cc1 (stereo not given) | inconclusive: 4.65 µM [inhibitor, partial curve, poor fit] | – |
| COc1ccc(OC)c(NC(=O)Cc2ccc(NC3=NC4CS(=O)(=O)CC4S3)cc2)c1 (stereo not given) | active: 11.7 µM | – |
| c1ccc(CN2CCN(c3nc(-c4ccccc4)nc(-n4ccnc4)n3)CC2)cc1 | – | inactive: -9.07% |
| CCN(CC)C(=O)c1cn(-c2cccc(OC)c2)c(=O)c2ccccc12 | inconclusive: 0.147 µM [inhibitor, full curve, poor fit] | – |
| C=CCC(CC)C(=O)NC(=O)N1CCCc2ccccc21 (stereo not given) | – | inactive: -6.01% |
| CCOc1ccc(-c2nnc(-c3cccs3)o2)cc1 | inconclusive: 0.0522 µM [inhibitor, full curve, poor fit] | – |

| Compound | Potency | activity change, negative = inhibition |
| --- | --- | --- |
| CCCCCn1c(SCC(=O)c2ccccc2)nc2cc(C(=O)NCc3ccco3)ccc2c1=O | inconclusive: 0.233 µM [inhibitor, full curve, poor fit] | – |
| CC(=O)Nc1ccc(C(=O)Nc2cccc(-c3cnc4ccccc4n3)c2)cc1 | – | inactive: 45.7% |
| CC(C)CN(C(=O)CN1CCOCC1)c1c(N)n(CC(C)C)c(=O)[nH]c1=O | inconclusive: 18.5 µM [inhibitor, single point] | – |
| O=C(Nc1cccc(F)c1)NC1(C(=O)N2CCOCC2)CCCCC1 | inconclusive: 4.15 µM [inhibitor, single point] | – |
| N#CCN1CCCC(C(N)=O)C1 (stereo not given) | inconclusive: 0.657 µM [inhibitor, full curve, poor fit] | – |
| Cc1ccc(S(=O)(=O)NC(=O)c2cc(C)n(-c3ccc(N(C)C)cc3)c2C)cc1 | active: 3.7 µM | – |
| Cn1c(=O)c2c(ncn2CC(COCc2ccccc2Cl)OCc2ccccc2Cl)n(C)c1=O (stereo not given) | active: 9.28 µM | – |
| Cc1ccc(C)c(NC(=O)C2=CCN(S(=O)(=O)c3ccc(F)cc3)CC2)c1 | inconclusive: 18.5 µM [inhibitor, single point] | – |
| COCCNC(=O)CS(=O)Cc1nc(-c2ccc(OC)cc2)oc1C (stereo not given) | inconclusive: 8.28 µM [inhibitor, partial curve, poor fit] | – |
| COc1cc(S(=O)(=O)N(Cc2ccc(C)cc2)Cc2ccco2)ccc1-n1cnnn1 | inconclusive: 18.5 µM [inhibitor, partial curve, poor fit] | – |
| COc1cc2c(cc1OC)CN(C(C)C(=O)Nc1cccc(S(=O)(=O)N3CCOCC3)c1)CC2 (stereo not given) | inconclusive: 1.04 µM [inhibitor, partial curve, poor fit] | – |
| CCCC(=O)Nc1cccc(Oc2ccc3c(c2)C(=O)NC3=O)c1 | – | inactive: 12% |
| Cc1cc(C(=O)N/N=C/c2sc(N3CCOCC3)nc2-c2ccccc2)c(C)o1 | inconclusive: 9.28 µM [inhibitor, partial curve, poor fit] | – |
| CCC(C)NC(=O)c1cn(-c2cccc(OC)c2)c(=O)c2ccccc12 (stereo not given) | – | inactive: 11.6% |
| Cc1cc(O)cc(O)c1C(=O)Cc1cnn(-c2ccccc2)c1 | inconclusive: 18.5 µM [inhibitor, single point] | – |
| CC(NC(=O)c1ccco1)C(=O)NC(C)c1cc(F)c(Cl)cc1Cl (stereo not given) | – | inactive: 12.6% |
| CCCS(=O)(=O)c1cnc(C2COc3ccccc3O2)nc1N (stereo not given) | – | inactive: 111% |
| O=C(c1cc(COc2c(F)cccc2F)on1)N1CCC(c2ccccc2F)C1 (stereo not given) | active: 9.28 µM | – |
| COc1ccc(-c2csc3ncnc(NCCCO)c23)cc1 | inconclusive: 13.1 µM [inhibitor, single point] | – |
| O=[N+]([O-])c1ccc(N2CCNCC2)cc1NC1CC1 | inconclusive: 0.522 µM [inhibitor, full curve, poor fit] | – |
| O=C(O)c1ccc(-c2sc(Nc3ccccc3)n[n+]2-c2ccccc2)cc1 | – | inactive: -23.2% |
| Cc1ccccc1OCC(=O)Nc1ccccc1C(=O)N1CCCCC1 | active: 10.4 µM | – |
| CC(C)(C)n1ncc2c(=O)n(CC(=O)NCc3ccccc3Cl)cnc21 | inconclusive: 2.33 µM [inhibitor, full curve, poor fit] | – |
| CCCCCCCCn1ccc(=N)cc1 | inconclusive: 0.37 µM [inhibitor, full curve] | – |

| Compound | Potency | activity change, negative = inhibition |
| --- | --- | --- |
| COCCNC(=O)C(=O)N/N=C/c1ccccc1C(F)(F)F | inconclusive: 0.0033 µM [inhibitor, full curve, poor fit] | – |
| Cc1nnc(SCC(=O)N2CCC(c3noc4ccc(F)cc34)CC2)s1 | – | inactive: -4.7% |
| O=C1N(c2ccccc2)C[C@@H]2C[C@@H](c3cccc4c3OCO4)N3CCC[C@@]123 | inconclusive: 18.5 µM [inhibitor, single point] | – |
| O=C(CSc1nnc(Nc2ccccc2)s1)NCC1CCCO1 (stereo not given) | inconclusive: 13.1 µM [inhibitor, single point] | – |
| CCOC(=O)CC(=O)Nc1ccccc1C(=O)O | – | inactive: 82.7% |
| CCn1c(COc2ccccc2C)nnc1SCC(=O)OC | inconclusive: 11.7 µM [inhibitor, single point] | – |
| CCC(=O)N1CCc2cc(Br)cc(S(=O)(=O)C3(C(=O)OC)CC3)c21 | inconclusive: 0.165 µM [inhibitor, full curve, poor fit] | – |
| COc1ccccc1-n1cnc2cc(C(=O)N3CCOCC3)ccc21 | active: 9.28 µM | – |
| CC(C)CCC(C(=O)NC(C)c1ccccc1)C(=O)NC(C)c1ccccc1 (stereo not given) | – | inactive: -0.452% |
| Cc1ccc(CNC(=O)c2sc3ccc(S(=O)(=O)N4CCCCC4)cc3c2N)cc1 | inconclusive: 11.7 µM [inhibitor, single point] | – |
| CCCNC(=O)c1onc(CSc2ccc(Cl)cc2)c1C(=O)NCC1CC1 | inconclusive: 18.5 µM [inhibitor, single point] | – |
| COc1ccccc1C(=O)Nc1cccc(Oc2c(F)c(F)c(F)c(F)c2F)c1 | inconclusive: 4.65 µM [inhibitor, partial curve, poor fit] | – |
| Cc1cccc(-c2ncc(CN3CCCC(CO)(Cc4ccccc4C)C3)cn2)c1 (stereo not given) | inconclusive: 14.7 µM [inhibitor, partial curve, poor fit] | – |
| CCOc1ccc2nc(NC(=O)C(NS(=O)(=O)c3cccs3)C(C)C)sc2c1 (stereo not given) | inconclusive: 0.0657 µM [inhibitor, full curve, poor fit] | – |
| COc1ccc(C2CC(c3cc(Br)ccc3F)n3nnnc3N2)cc1 (stereo not given) | inconclusive: 7.38 µM [inhibitor, partial curve] | – |
| CN(C)c1ccc(-n2cccc2/C=N/n2cnnc2)cc1 | inconclusive: 0.0033 µM [inhibitor, full curve, poor fit] | – |
| O=C(NCc1ccccc1)c1noc2c1CCCCC2 | active: 9.28 µM | – |
| NC1=NC(=Nc2ccccc2)c2ccccc21 | inconclusive: 11.7 µM [inhibitor, single point] | – |
| COc1ccc(N2CCN(Cc3nc4c(c(=O)[nH]c(=O)n4C)n3CCCc3ccccc3)CC2)cc1 | – | inactive: 2.77% |
| COc1cccc(NCc2ccc([N+](=O)[O-])s2)c1 | active: 0.329 µM | – |
| COc1ccc(NS(=O)(=O)c2ccc(N3CCCC3)c(NC(=S)Nc3cccc(S(=O)(=O)N(C)C)c3)c2)cc1 | inconclusive: 5.86 µM [inhibitor, partial curve, poor fit] | – |
| CCCCOc1ccc(C(=O)N(Cc2ccccc2)C2CCS(=O)(=O)C2)cc1 (stereo not given) | inconclusive: 16.5 µM [inhibitor, partial curve, poor fit] | – |

Of the compounds above, these have bromine.

| Compound | Potency | activity change, negative = inhibition |
| --- | --- | --- |
| Nn1c(SCc2nc3ccccn3c2Br)nnc1-c1cccnc1 | – | inactive: 187% |
| CCN1CCN(S(=O)(=O)c2ccc(Br)s2)CC1 | inconclusive: 11.7 µM [inhibitor, single point] | – |
| Cc1cccc([C@@H]2[C@@H]3C(=O)N(Cc4ccccc4)C(=O)[C@@H]3[C@]3(Cc4ccc(Cl)cc4)C(=O)N(c4ccc(Br)cc4)C(=O)N23)c1 | active: 8.28 µM | – |
| O=C(CN1C2=NCCCN2c2ccccc21)c1ccc(Br)s1 | inconclusive: 11.7 µM [inhibitor, partial curve, poor fit] | – |
| CCC(=O)N1CCc2cc(Br)cc(S(=O)(=O)C3(C(=O)OC)CC3)c21 | inconclusive: 0.165 µM [inhibitor, full curve, poor fit] | – |
| COc1ccc(C2CC(c3cc(Br)ccc3F)n3nnnc3N2)cc1 (stereo not given) | inconclusive: 7.38 µM [inhibitor, partial curve] | – |

Source: PubChem BioAssay AID504834 (National Center for Advancing Translational Sciences (NCATS), 2011)
